# Reference: PubChem BioAssay AID493014 (National Center for Advancing Translational Sciences (NCATS), 2011)
# The list shows a part of the results. Shown are side measurements of this screen, not its main read-out; they come without a call. Compounds called inactive in the main read-out are mostly missing here. Words in brackets tell the shape of the fitted curve; partial curves, single points and poor fits give uncertain potencies.
# Assay: qHTS Assay to Find Inhibitors of Chronic Active B-Cell Receptor Signaling
# Conditions: ABC-DLBCL IkBa-CBG/CBR reporter, luminescence ratio (green luciferase fused to IkBa over red control in TMD8 lymphoma cells), 4 h
# Outline: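 Cell line TMD8 (human ABC DLBCL), stably expressing tet-inducible CBG68-IkBa fusion and CBR; IMDM/0.5% FBS; cpd up to 46 uM; dox induction, 4 h, 37C/5% CO2; dual luminescence; green/red ratio; MG132 control.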
# [1] = measured here: CBR red luminescence, cell number
# [2] = measured here: IkBa-CBG green luminescence
SMILES,AC50 [1],AC50 [2]
COC1CCCCC1NCCc1ccccc1 (stereo not given),"35.5 µM [falling, single point]",–
CCn1c(O)c(/C=N/NC(=O)c2ccccc2)c(=O)[nH]c1=S,"0.708 µM [falling, full curve]",–
C=CCSc1nc2c(c(-c3ccsc3)c1C#N)CN(C)CC2,"7.08 µM [falling, partial curve]",–
CS(=O)(=O)Nc1ccc(Cc2noc(-c3ccc4[nH]cc(CCN)c4c3)n2)cc1,"5.62 µM [rising, single point]",–
COc1cc(/C=C/c2nc3ccccc3c(=O)n2-c2ccc(O)cc2)ccc1O,"11.2 µM [falling, partial curve, poor fit]",–
CCCCn1c(O)c(C(CC)=NCc2cc(OC)cc(OC)c2)c(=O)[nH]c1=O,"2.24 µM [rising, full curve, poor fit]",–
O=c1[nH]sc2cc(F)ccc12,"8.91 µM [falling, partial curve, poor fit]","6.31 µM [rising, full curve]"
COc1cc(/C=C/C(=O)c2ccc3c(c2)OCO3)cc(Cl)c1O,"12.6 µM [falling, partial curve, poor fit]",–
CN(C)C(=O)Oc1ccc2oc(=O)cc(-c3cc4ccccc4o3)c2c1,"0.316 µM [rising, full curve, poor fit]",–
COCCCn1c(N)c(C(=O)NCCC(C)C)c2nc3ccccc3nc21,"12.6 µM [falling, partial curve, poor fit]",–
Cn1c(O)c(/C=N/N2CCOCC2)c(=O)n(C)c1=S,"8.91 µM [falling, partial curve]",–
Cc1cc(-c2ccccc2)nc(N/N=C/c2ccccc2F)n1,"10 µM [falling, single point]",–
CCCCCCC(=O)N/N=C/c1c(O)n(CCc2ccccc2)c(=O)[nH]c1=O,"25.1 µM [falling, single point]",–
CCN1CCN(Cc2cc(OC)c(OC)cc2[N+](=O)[O-])CC1,"35.5 µM [falling, single point]",–
O=C1NC(=O)N(c2ccc3c(c2)OCO3)C(=O)/C1=C\c1ccc(N2CCCCC2)o1,"20.6 µM [falling, single point]",–
CC(C)[C@H]1C(=O)N2CCC[C@H]2[C@]2(O)O[C@](NC(=O)[C@@H]3C=C4c5cccc6[nH]cc(c56)C[C@H]4N(C)C3)(C(C)C)C(=O)N12,"20.6 µM [rising, partial curve, poor fit]",–
CNc1ccc2nc3ccccc3[n+](C)c2c1,"0.501 µM [falling, full curve, poor fit]",–
O=c1[nH]c(=O)n(CCc2ccc(F)cc2)c(O)c1C=NCCCn1ccnc1,"6.51 µM [falling, single point]",–
NC(=Nc1ccccc1)Nc1ccccc1,"2 µM [rising, partial curve, poor fit]",–
C1CCC(c2nn3c(-c4n[nH]c5c4CCC5)nnc3s2)CC1,"22.4 µM [falling, partial curve, poor fit]",–
COc1cc(/C=N/NC(=O)c2ccccc2)ccc1O,"11.2 µM [falling, partial curve]",–

SMILES,AC50 [1],AC50 [2]
CC(=O)OC(C)(C)/C=C/C(=O)[C@](C)(O)C1[C@H](O)C[C@@]2(C)C3CC=C4C(C[C@H](O)C(=O)C4(C)C)[C@]3(C)C(=O)C[C@]12C (stereo not given in full),"23.1 µM [falling, single point]",–
O=C1NC(=O)C(=Cc2ccc(-c3ccc(S(=O)(=O)N4CCOCC4)cc3)o2)C(=O)N1,"6.31 µM [rising, single point]",–
COC(=O)C1=C(c2ccc(OC(F)(F)F)cc2)C[C@@H]2CC[C@H]1N2C(=O)N1CCOCC1,"29.1 µM [rising, single point]",–
CCNC(=O)NC(=O)C(C)OC(=O)c1c(C)nn(Cc2ccccc2Cl)c1Cl (stereo not given),"29.1 µM [falling, single point]",–
Cc1cc(C)c(N)cc1C,"10.3 µM [falling, partial curve, poor fit]",–
CC12CN3CCN(C1)CC(C)(C3)C2=NO,"3.66 µM [rising, single point]",–
COC(=O)C1=C(c2ccc3ccccc3c2)C[C@@H]2CC[C@H]1N2C(=O)NC1CCCCC1,"3.26 µM [falling, single point]",–
Oc1ccc(/C=N/NP(=S)(c2ccccc2)c2ccccc2)cc1,"20.6 µM [falling, partial curve]",–
O=C1NC(=O)N(Cc2ccccc2)C(=O)/C1=C/c1cnc(-c2ccccc2)nc1,"11.2 µM [falling, single point]",–
O=C(CCN1CCOCC1)Nc1ccc(Br)cc1C(=O)c1ccccc1,"28.2 µM [rising, single point]",–
COc1ccc(OC)c(NC(=O)c2ccc(-c3csc(C)n3)cc2)c1,"10 µM [falling, partial curve]",–
CCOC(=O)c1ccc2[nH]c(-c3ccc(S(=O)(=O)F)cc3)cc(=O)c2c1,"35.5 µM [falling, single point]",–
O=C(Cn1c(=O)oc2ccccc21)NC(=O)NCc1ccco1,"16.4 µM [rising, single point]",–
CCOP(=O)(OCC)C1(C(=O)O)CCCC1,"0.794 µM [falling, full curve, poor fit]",–
CCN(CC)CCN=Cc1c(O)n(Cc2ccccc2)c(=O)[nH]c1=O,"35.5 µM [rising, partial curve, poor fit]",–
CN(C(=O)Oc1ccc(C(C)(C)C)cc1)c1ccccc1,"14.1 µM [rising, partial curve, poor fit]",–
O=C(c1cc(-c2ccccc2)on1)N1CCC2(CC1)OCCO2,"3.16 µM [rising, full curve, poor fit]",–
CCn1c(Sc2ccc([N+](=O)[O-])cn2)nnc1-c1ccco1,"12.6 µM [falling, partial curve, poor fit]",–
O=C(CNC1CCCCC1)N1CCC2(CC1)OCCO2,"29.1 µM [falling, single point]",–
N[C@@H](Cc1c[nH]c2ccccc12)c1nnc(SCc2c(F)cccc2Cl)o1,"2 µM [rising, partial curve, poor fit]",–
Cc1ccc(C(=O)Nc2ccc(C(=O)N/N=C/c3ccc(C)o3)cc2)cc1,"22.4 µM [falling, single point]",–

# In the list so far, 2 contain a nitro group on carbon.
SMILES,AC50 [1],AC50 [2]
CCN1CCN(Cc2cc(OC)c(OC)cc2[N+](=O)[O-])CC1,"35.5 µM [falling, single point]",–
CCn1c(Sc2ccc([N+](=O)[O-])cn2)nnc1-c1ccco1,"12.6 µM [falling, partial curve, poor fit]",–

# (more compounds)

SMILES,AC50 [1],AC50 [2]
Cc1ccccc1-n1c(C)nc2sccc2c1=O,"11.2 µM [rising, partial curve]",–
CC(C)CSC1=NSC2=NC(=O)/C(=C\c3ccccc3)C(=N)N12,"35.5 µM [falling, single point]",–
O=c1c2ccccc2[se]n1-c1ccccc1,"22.4 µM [falling, single point]","5.8 µM [falling, full curve]"
C[n+]1c(-c2ccccc2)c2cc(N)ccc2c2ccc(N)cc21,"31.6 µM [rising, single point]",–
C#CC1(O)C=CC2C3CCC4=CC(=O)CCC4C3CCC21CC (stereo not given),"22.4 µM [rising, partial curve, poor fit]","11.2 µM [falling, partial curve, poor fit]"
Cn1nnnc1SCc1ccc(C(=O)Nc2ccccc2F)cc1,"22.4 µM [falling, partial curve, poor fit]",–
CC(C)(C)C(O)C(Oc1ccc(Cl)cc1)n1cncn1 (stereo not given),"0.1 µM [falling, full curve]",–
NC(=O)[C@H]1CC2(CC(c3cccc(NC(=O)COc4ccc(Cl)cc4)c3)=NO2)CN1C(=O)c1ccc(Cl)cc1 (stereo not given in full),"11.2 µM [falling, partial curve]",–
COc1cc2c(cc1OC)C(C(=O)N1CCC3(CC1)OCCO3)C(c1ccccc1F)N(C)C2=O (stereo not given),"32.6 µM [falling, partial curve, poor fit]",–
COc1ccc(C(=O)/C=C2/C(=O)Nc3ccccc32)c(OC)c1,"12.6 µM [falling, partial curve, poor fit]",–
O=C(CN1CCN(C(=O)COc2cccc(F)c2)CC1)Nc1ccc(Cl)c(C(F)(F)F)c1,"10.3 µM [falling, partial curve, poor fit]",–
COc1ccc(/C=C\C(=O)c2c(O)ccc3c(C)cc(=O)oc23)cc1OC,"14.1 µM [rising, partial curve, poor fit]",–
O=C1c2ccccc2-c2onc3c(N4CCN(CCO)CC4)cc(N4CCN(C(=O)c5ccco5)CC4)c1c23,"11.2 µM [falling, partial curve, poor fit]",–
CCOc1cc(CNCCc2c[nH]c3ccccc23)cc(Cl)c1OC,"10 µM [falling, single point]",–
CCOC(=O)C1(c2ccccc2)CCN(CCC(=O)Nc2cccc(Br)c2)CC1,"29.1 µM [falling, single point]",–
COc1ccc2c(c1)c(/C=C/c1cc[n+](C)cc1)cn2C,"2.82 µM [falling, partial curve, poor fit]",–
O=C(Oc1c(Cl)cc(Cl)c2ccccc12)N1CCCCC1,"23.1 µM [rising, single point]",–
Clc1ccc(OCC#CCN2CCOCC2)cc1,"7.94 µM [rising, partial curve, poor fit]",–
CCOP(=O)(OCC)/C(C#N)=C/c1ccc(Br)cc1,"7.94 µM [falling, partial curve, poor fit]",–
c1ccc2c(CN3CCCCC3)c[nH]c2c1,"1.12 µM [rising, partial curve, poor fit]",–

# Shown with tabs: part of the list above
SMILES	AC50 [1]	AC50 [2]
CC(C)(C)C(O)C(Oc1ccc(Cl)cc1)n1cncn1 (stereo not given)	0.1 µM [falling, full curve]	–
CCOP(=O)(OCC)/C(C#N)=C/c1ccc(Br)cc1	7.94 µM [falling, partial curve, poor fit]	–
